According to patent US20120065170A1, “Antimicrobial Cyclocarbonyl Heterocyclic Compounds For Treatment Of Bacterial Infections” (priority 2010, published 2012):

Tested on: reticulocytes
Assay: 5-days mouse sub-acute toxicity test (myelosuppression, reticulocyte count)
Assay type: in vivo
Details: for ratio of reticulocyte count (Table 5) divided by MIC90 against S. aureus (Table 1): toxicity versus activity balance
Protocol: The potential of representative compounds of this invention for myelosuppression has been evaluated in a 5-days mouse sub-acute toxicity test. For comparison purposes, Reference Compound 14 (Example 143 of publication US 2003/0166620) and Reference Compound 15 (TR-700 or torezolid; publications PCT WO2005/058886 and PCT WO2010/042887) have been included. The compounds were dosed to mice at 37.5 mg/kg/day on a twice-daily schedule. On day 5, blood was harvested for hematology testing. The toxicity was evaluated based on the reduction in the number of reticulocytes, previously described as the key marker for myelosuppression signs in pre-clinical testing of oxazolidinones, including linezolid. Thus, a higher degree of a reduction in the reticulocyte count is indicative of an elevated toxicity, while a lower drop in the reticulocyte count indicates a reduced propensity to the myelosuppression effect on the blood cells.

SMILES	ratio of reticulocyte count (Table 5) divided by MIC90 against S. aureus (Table 1)	fold difference of reticulocyte count/MIC90 ratio over Reference Compound 15 (Example 1 versus Reference Compound 15) [fold]
Cn1nnc(-c2ccc(-c3ccc(N4C[C@H](CO)OC4=O)cc3F)cn2)n1 [Ref. Cpd. 15, (5R)-3-[3-fluoro-4-[6-(2-methyltetrazol-5-yl)-3-pyridyl]phenyl]-5-(hydroxymethyl)oxazolidin-2-one]	76.4	–
O=C1O[C@@H](CO)CN1c1ccc(-c2ccc(N3CCOC3=O)nc2)c(F)c1 [Example 1]	1020	~13
